PubChem BioAssay AID1259308, NCATS – 2017
Here is an unselected part of about 59,000 reagents tested. Of all reagents, about 1,510 (2.6%) are marked active. 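Calls use total luciferase alone and ignore viability, so some active siRNAs may act by altering cell number.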 The numbers tell different reagents against one gene apart. Not all columns of the deposit are shown.

Purpose: 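Candidate targets for better recombinant protein yield in mammalian cells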 (primary screen)
Cells: human HEK293 embryonic kidney cells stably expressing firefly luciferase (HEK-CMV-Luc2-Hygro)
Reagent: single siRNA against human genes, 0.8 pmol siRNA per well
Timing: 72 h
Measurement: 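Luciferase light (ONE-Glo) measured on one replicate plate set and viability (CellTiter-Glo) on the other, scaled to a negative control siRNA, with robust z-scores and luciferase per cell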
Reading the numbers: total luciferase, z-score: higher = more reporter protein produced
Hit rule: 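Active when the median/MAD z-score for overall luciferase is greater than 3; a gene was taken forward for validation with new siRNAs if at least two of its three siRNAs passed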
Calls: active = raised luciferase; inactive = no rise

SPACA9 (GeneID 11092) #1
- total luciferase, z-score: 0.12
- Call: inactive

SPACA9 (GeneID 11092) #2
- total luciferase, z-score: -0.62
- Call: inactive

SPACA9 (GeneID 11092) #3
- total luciferase, z-score: -1.64
- Call: inactive

ELP2 (GeneID 55250) #1
- total luciferase, z-score: 0.407
- Call: inactive

ELP2 (GeneID 55250) #2
- total luciferase, z-score: -0.132
- Call: inactive

ELP2 (GeneID 55250) #3
- total luciferase, z-score: 0.00421
- Call: inactive

ACTR3 (GeneID 10096) #1
- total luciferase, z-score: -0.0872
- Call: inactive

ACTR3 (GeneID 10096) #2
- total luciferase, z-score: -0.457
- Call: inactive

ACTR3 (GeneID 10096) #3
- total luciferase, z-score: -1.17
- Call: inactive

AKR7A2 (GeneID 8574) #1
- total luciferase, z-score: -0.239
- Call: inactive

AKR7A2 (GeneID 8574) #2
- total luciferase, z-score: 0.603
- Call: inactive

AKR7A2 (GeneID 8574) #3
- total luciferase, z-score: 1.28
- Call: inactive

POLR2E (GeneID 5434) #1
- total luciferase, z-score: -2.55
- Call: inactive

POLR2E (GeneID 5434) #2
- total luciferase, z-score: -2.63
- Call: inactive

POLR2E (GeneID 5434) #3
- total luciferase, z-score: -1.56
- Call: inactive

ZNF837 (GeneID 116412) #1
- total luciferase, z-score: 0.454
- Call: inactive

ZNF837 (GeneID 116412) #2
- total luciferase, z-score: 0.549
- Call: inactive

ZNF837 (GeneID 116412) #3
- total luciferase, z-score: 0.68
- Call: inactive

CNIH1 (GeneID 10175) #1
- total luciferase, z-score: 0.908
- Call: inactive

CNIH1 (GeneID 10175) #2
- total luciferase, z-score: 0.291
- Call: inactive

CNIH1 (GeneID 10175) #3
- total luciferase, z-score: -1.11
- Call: inactive

Part of the list above, set out differently.
| gene | reagent no. | total luciferase, z-score | Call |
| --- | --- | --- | --- |
| AKR7A2 (GeneID 8574) | 1 | -0.239 | inactive |
| AKR7A2 (GeneID 8574) | 2 | 0.603 | inactive |
| AKR7A2 (GeneID 8574) | 3 | 1.28 | inactive |
